Data taken from ChEMBL document CHEMBL3988442, “University of Dundee, Small-Polar-MMV Screening Library” (2021).

Chains of the proteins cited; added tags and fusions are not shown. Residues count along the entry.
UniProt A4I591, 1-473: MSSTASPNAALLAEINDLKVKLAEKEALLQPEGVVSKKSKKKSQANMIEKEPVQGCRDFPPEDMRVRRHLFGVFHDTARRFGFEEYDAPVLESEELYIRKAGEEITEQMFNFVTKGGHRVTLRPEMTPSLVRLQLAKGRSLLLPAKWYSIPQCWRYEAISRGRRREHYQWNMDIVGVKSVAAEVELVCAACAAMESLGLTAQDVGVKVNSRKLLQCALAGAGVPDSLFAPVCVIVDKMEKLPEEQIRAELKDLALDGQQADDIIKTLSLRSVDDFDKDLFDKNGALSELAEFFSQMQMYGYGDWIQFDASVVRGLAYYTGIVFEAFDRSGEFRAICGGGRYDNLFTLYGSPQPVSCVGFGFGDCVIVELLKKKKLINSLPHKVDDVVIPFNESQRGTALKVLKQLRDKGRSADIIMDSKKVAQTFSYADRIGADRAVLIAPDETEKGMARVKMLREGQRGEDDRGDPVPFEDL
UniProt P9WPC5, whole entry: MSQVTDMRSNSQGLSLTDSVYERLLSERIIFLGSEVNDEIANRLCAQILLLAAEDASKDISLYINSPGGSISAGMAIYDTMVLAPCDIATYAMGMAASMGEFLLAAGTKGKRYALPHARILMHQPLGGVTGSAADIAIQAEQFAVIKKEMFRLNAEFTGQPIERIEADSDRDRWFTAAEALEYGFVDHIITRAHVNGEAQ
UniProt P9WPC3, whole entry partner: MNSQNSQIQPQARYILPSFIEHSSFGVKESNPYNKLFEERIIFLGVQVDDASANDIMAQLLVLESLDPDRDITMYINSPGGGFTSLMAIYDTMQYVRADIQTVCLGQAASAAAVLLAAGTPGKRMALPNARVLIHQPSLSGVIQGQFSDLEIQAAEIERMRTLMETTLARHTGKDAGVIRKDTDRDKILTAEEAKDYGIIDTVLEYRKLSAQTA

LiHisRS: 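Histidine-tRNA ligase, Leishmania infantum (UniProt A4I591). Enzyme assay of histidyl-tRNA synthetase; the read-out is not stated. Compounds at 30 µM. Direction is inferred from retests: higher values go with stronger inhibition. The assay is labelled LdHisRS but filed under L. infantum. About 69,000 compounds were tested under these conditions; 0.6% (about 410) showed 50% or more at least once.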
Toxoplasma: 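Assay of Toxoplasma gondii numbers, read through their beta-galactosidase reporter with a colour substrate. Concentration: 10 µM. The record gives no direction; the compounds picked for IC50 retests had high values, so higher reads as fewer parasites. Size under these conditions: about 67,000 compounds, about 260 of them at 50% or above in at least one test.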
ClpP1P2: 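Protease assay of ClpP1P2, read by the AMC dye that it sets free. Target: ClpP1P2, Mycobacterium tuberculosis (UniProt P9WPC5 and UniProt P9WPC3). Compounds at 50 µM. Direction is inferred from only a few compounds that gave an IC50; most scored high, so higher reads as stronger inhibition. Most other retested compounds had strongly negative values. About 69,000 compounds were tested under these conditions; 0.015% (about 10) showed 50% or more at least once.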
T. brucei: 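Whole-parasite assay of Trypanosoma brucei over 72 hours; the read-out is not stated. Tested at 30 µM. Direction is inferred from retests: higher values go with stronger inhibition. Values scatter widely below zero; nearly all retest evidence comes from the higher of the two concentrations used. Size under these conditions: about 64,000 compounds, about 940 of them at 50% or above in at least one test.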
Leishmania in macrophages: 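Cell assay of Leishmania donovani living inside macrophages; the read-out is not stated. Compounds at 30 µM. The record gives no direction; compounds that gave an IC50 in retests scored well above the rest, so higher reads as stronger inhibition. Size under these conditions: about 69,000 compounds, about 1,000 of them at 50% or above in at least one test.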

Each number is a percent effect as filed. The controls that fix the scale are not given in the record; negative values are as filed. Compounds were drawn at random from those tested, without regard to their results. Two or more numbers in one place are separate tests of the same structure; such repeats can differ widely. A dash means the value is not listed here; it may have been measured.

structure,LiHisRS,Toxoplasma,ClpP1P2,T. brucei,Leishmania in macrophages
CCN1CCO[C@@H]2CN(C(=O)c3cocn3)C[C@@H]2C1,-4.202,-,11.23,-,-
Cc1cc(C2CCCN(CCc3ccccn3)C2)n[nH]1 (stereo not drawn),7.865,-,-0.3043,-2.178,20.94
Cc1nn(C)cc1C(=O)N1CCC(C(=O)c2nc3ccccc3s2)CC1,6.993,5.117,-13.39,1.944,-39.07
CCOc1ncccc1NC(=O)N1CCOCC1C (stereo not drawn),5.333,1.953,-2.002,-20.8,8.96
COCCCn1ccc(NC2CCOCC2)n1,11.61,5.627,15.03,-24.44,14.11
COc1cc2nc(NCCNS(C)(=O)=O)cc(C)c2cc1OC,1.042,-3.366,-50.59,21.73,-28.24
O=C(O)c1nnn(Cc2ccc(F)cc2)c1-c1cccnc1,26.67,15.24,9.798,-7.544,12.45
Cc1cc(N[C@H]2CN(CC(C)(C)N3CCOCC3)C[C@@H]2C2CC2)ncn1,4.082,8.783,-3.265,-20.13,3.631
O=C(O)C(F)(F)F.O=C1CC2(CCCCN2C(=O)Cc2ccccc2)CN1c1cccnc1 (stereo not drawn),-,-1.108,-,-8.508,-5.126
CC(C)(C)n1ncc2c(=O)[nH]c(N3CCN(CCO)CC3)nc21,16.44,7.39,1.718,-6.696,14.12
COCC1CC2(CCN(C(=O)c3cccn3C)CC2)CN1C(C)C (stereo not drawn),13.46,2.302,-4.242,2.297,32.47
Cc1cccc(NC(=O)[C@@H]2CCCN2Cc2nc3ccccc3o2)n1,-18.75,14.42,3.759,16.87,21.5
COc1cccc(C(=O)N2CCCCC2CNC(N)=O)c1 (stereo not drawn),-25.76,-3.202,-1.053,-30.29,-19.37
O=C(CN1CC(n2cccn2)C1)NCCc1ccc(F)cc1,14.29,-12.98,-16.27,-6.988,14.18
O=C(O)C(F)(F)F.[H][C@@]12OCCN(S(C)(=O)=O)[C@@]1([H])CC[C@@H]2Oc1ncccc1F,-,-11.37,-,12.73,9.955
O=C(O)C(F)(F)F.[H][C@@]12CCCO[C@]1([H])[C@H](NS(C)(=O)=O)CN2C(=O)c1cccnc1,-,-1.824,-,12.58,5.716
Cc1nn(C)c(C)c1CC(=O)N1CCCC1Cn1cccn1 (stereo not drawn),12.94,11.66,-10.84,-18.53,10.82
CC1CC(NS(=O)(=O)c2ccc(C(F)(F)F)nc2)C1 (stereo not drawn),-5.31,35.13,-12.82,-45.59,-21.96
Cc1cccc(-n2nc(CC(C)C)nc2CCCC(N)=O)c1,4.301,-12.64,7.61,-23.88,25.09
Cc1cnn(C2CCCN(C(=O)COc3ccc(C(N)=O)cc3)C2)c1 (stereo not drawn),9.917,1.042,-4.489,12.31,-16.68
Cc1cccc(CC2COCCN(Cc3nccn3C)C2)n1 (stereo not drawn),13.04,2.442,-6.669,3.639,15.52 and 16.22
CC(C)CN1C(=O)CC[C@H]2CN(C(=O)c3ncc[nH]3)CC[C@H]21,-4,-,-2.194,-,-
CCc1ccc(C(=O)Nc2cc(N3CCNC3=O)ccc2Cl)o1,9.948,2.185,1.665,13.84,27.34
CC(C)Nc1ncccc1C(=O)NCc1cnc(N(C)C)n1C,13.7,8.271,-15.7,-1.923,-0.5728
COCCN1CCC(CNC(=O)C2(c3ccccc3)CCOCC2)C1 (stereo not drawn),16.96,-46,-29.13,-10.94,11.25
CCc1ccc(CNc2cc(N3CCCC3CO)ncn2)s1 (stereo not drawn),6.838,0.7012,-36.55,-,9.636
COCCN1CCCn2c(nc(CNC(=O)COC)cc2=O)C1,15.45,-,-8.191,-,-
CN(CCc1ccccn1)C(=O)CCC1CCCN(c2ccncc2)C1 (stereo not drawn),-2.655,-0.0575,1.622,5.533,21.15
CCOc1ccccc1C(C(=O)O)N(C)CC1CCOCC1 (stereo not drawn),6.195,8.108,-1.953,15.16,28.91
CNC(=O)C1(N2CCC[C@H]2C(=O)NC2CCOCC2)CCOCC1,36.11,-,-8.034,-,-
Cn1cnc(S(=O)(=O)N2C[C@H]3CN(Cc4ccccn4)C[C@H]3C2)c1,12.28,-,11.38,-,-
CC1CCN(C(=O)Cn2nc(Br)nc2Br)CC1,21.84,9.5,-4.349,-23.93,-13.57
CC(C)NC[C@@]1(COc2ccccc2)C[C@@H](O)[C@@H](O)C1,25,-,-7.133,-,-
Cc1nc2ccccn2c1CN1C[C@@H](CN2CCOCC2)[C@@H](CO)C1,16.13,-1.157,-2.436,19.44,60.75
Cc1ccc(-c2cn3c(n2)CO[C@@H](CNCc2cccnc2)C3)cc1,22.97,-3.482,-1.575,-38.73,23.34
CN(C)c1cc(CNC(=O)c2cc(F)ccc2F)ccn1,8.929,-1.888,-18.53,-16.61,-8.11
c1cc(N2CCC(CN3CCOCC3)CC2)c2sccc2n1,17.33,-15.51,-0.6638,-9.098,33.97
O=C(NC[C@]12COC[C@H]1CN(Cc1ccco1)C2)c1ccccc1,-10.26,-,-11.21,-,-
CC(C)c1nc(CN(C)C(=O)c2ccc(CN3CCCCC3)cc2)cs1,9.836,-36.61,-8.914,-0.2021,0.2583
CC(C)(C)CN1CCC[C@H]1c1nc(-c2cncnc2N)no1,14.86,-7.97,2.669,3.001,9.597
CC(C)(CN)NS(=O)(=O)c1cccc(F)c1F.Cl,-,-1.189,-,-68.8,2.719
Fc1ccccc1CC1CCN(Cc2ccccn2)CC1,16.44,-5.889,10.95,-25.75,14.25
CCOC1Sc2nnc(C)n2N=C1c1ccc(F)cc1 (stereo not drawn),24.14,9.88,2.915,-38.15,6.407
Cc1nnc(NC(=O)N2CCCN(C3CCCC3)CC2)s1,14,-2.743,-12.68,0.04743,12.28
CCc1nc(CCNc2ncccc2S(N)(=O)=O)sc1C,13.73,8.86,-1.9,-11.57,-5.123

Repeated from the top, 5 entries:

With CCN1CCO[C@@H]2CN(C(=O)c3cocn3)C[C@@H]2C1 the screen gave LiHisRS: -4.202%; ClpP1P2: 11.23%.
With Cc1cc(C2CCCN(CCc3ccccn3)C2)n[nH]1 (stereo not drawn) the screen gave LiHisRS: 7.865%; ClpP1P2: -0.3043%; T. brucei: -2.178%; Leishmania in macrophages: 20.94%.
With Cc1nn(C)cc1C(=O)N1CCC(C(=O)c2nc3ccccc3s2)CC1 the screen gave LiHisRS: 6.993%; Toxoplasma: 5.117%; ClpP1P2: -13.39%; T. brucei: 1.944%; Leishmania in macrophages: -39.07%.
With CCOc1ncccc1NC(=O)N1CCOCC1C (stereo not drawn) the screen gave LiHisRS: 5.333%; Toxoplasma: 1.953%; ClpP1P2: -2.002%; T. brucei: -20.8%; Leishmania in macrophages: 8.96%.
With COCCCn1ccc(NC2CCOCC2)n1 the screen gave LiHisRS: 11.61%; Toxoplasma: 5.627%; ClpP1P2: 15.03%; T. brucei: -24.44%; Leishmania in macrophages: 14.11%.